Laboratory results: patent publication US20120183580A1, “Analgesic Composition for Transbuccal Administration” (priority 2011, published 2012)
Not every detail of the peptide structures is certain; ends, links or a residue may be inferred. Where a SMILES comes first, the peptide text is derived from it.

Experiments:
Sprague-Dawley rats = assay: formalin model; assay type: in vivo; conditions: 1 mg/kg sublingual, vs saline
Swiss albino mice = assay: acetic acid-induced writhing model; assay type: in vivo; conditions: 1 mg/kg, sublingual

Compound: C[C@@H](O)[C@H](NC(=O)[C@@H]1CCCN1C(=O)[C@H](Cc1ccccc1)NC(=O)[C@@H]1CCCN1C(=O)[C@@H](N)CC(N)=O)C(=O)N[C@@H](Cc1c[nH]c2ccccc12)C(=O)N[C@@H](CCCNC(=N)N)C(=O)N[C@@H](CCCCN)C(=O)N[C@@H](CCCNC(=N)N)C(=O)N1CCC[C@H]1C(=O)NCC(=O)O [the peptide, NPFPTWRKRPG] (H-NPFPTWRKRPG-OH; N-terminus and C-terminus assumed)
- number of flinches of formalin-injected hind limb, acute phase (Sprague-Dawley rats; first 5 min after formalin injection): significantly reduced the number of flinches
- number of flinches, delayed phase (Sprague-Dawley rats): no significant effects
- antinociceptive effect in writhing model (Swiss albino mice): has an antinociceptive effect
